50 molecules from PMC12040169 (PLOS Biology, 2025) can be followed below.

Some of the results follow.

In this assay the test system is T1, CTL2-GFP (C. trachomatis L2/434/Bu, GFP-expressing).
T1 construct: L2/434/Bu, GFP-expressing
On the set-up: species or system HeLa; Intracellular C. trachomatis growth in HeLa cells, bulk GFP fluorescence relative to DMSO. The note with it: bulk GFP, single well; 28.5 h, 10 µM; inhibitor.
For the molecule `CN(C)S(=O)(=O)c1ccc(CCC(=O)O)cc1` [CBK287216], the “% of control remaining” value was 131.945%.
Take `CCN(C(=O)CC1SC(NCC2CCCCC2)=NC1=O)c1ccccc1` (centres unmarked) [CBK067373]: the “% of control remaining” value is listed as 132.416%.
For `C=CCn1c(Cc2csc(NC(=O)c3ccc(C(C)=O)s3)n2)n[nH]c1=S` [CBK295299], the “% of control remaining” value stood at 169.363%.
In the case of `Cc1sc(-c2ccc(Cl)nc2)nc1OC(=O)c1cccs1` [CBK067733] it was 92.6367%; in that of `O=S(=O)(Cc1ccccc1)Nc1cccc2[nH]ccc12` [CBK159490], 188.048%.
In the case of `O=C(COc1ccccc1)NC1C(=O)N2C(C(=O)O)=C(Cl)CSC12` (centres unmarked) [CBK266903] it was 155.928%; in that of `COc1ccc(NCc2cc(I)c(OCc3ccccc3)c(OC)c2)cc1` [CBK074452], 77.4571%; in that of `O=C(NCC1COc2ccccc2O1)NC(=O)C1CCNCC1` (centres unmarked) [CBK051096], 118.731%.
In the case of `Cc1c(C(=O)O)sc2c1c(=O)n(Cc1ccccc1)c(=O)n2CCN(C)C` [CBK286590] it was 121.405%; in that of `CC(=O)NC1=NC(=O)CN1C` [CBK020181], 127.523%; in that of `CCN1CCCCC1CNC(=O)c1cc(C2CC2)n[nH]1` (centres unmarked) [CBK282205], 126.499%.
For the molecule `O=C(c1ccc(-c2nccnc2N2CCN(CCO)CC2)cc1)N1CCOCC1` [CBK036812], the “% of control remaining” value came out at 220.682%.
In the case of `O=C(C1=C(O)C(=O)N(CCCn2ccnc2)C1c1ccncc1)c1ccccc1` (centres unmarked) [CBK264527] it was 133.525%.
As for `O=C(Nc1cccc2nsnc12)c1ccc(Cl)cc1` [CBK263793], the figure is 122.597%; as for `COC(=O)c1ccc(NC(=O)CC2Sc3ccc(C(F)(F)F)cc3NC2=O)cc1` (centres unmarked) [CBK264645], 102.076%.
As for `CN(CC(=O)Nc1sc2c(c1C#N)CCCCC2)Cc1cnn(C)c1` [CBK304621], the figure is 158.331%.
As to `O=c1n(-c2ccc(Cl)c(Cl)c2)ccn1S(=O)(=O)CCc1cccc2ccccc12` [CBK106668], the “% of control remaining” value was 162.536%.
`COc1ccc(C(C)N(CCN2CCOCC2)C(=O)NCc2cccc3ccccc23)cc1OC` (centres unmarked) [CBK158984]: the “% of control remaining” value turned out to be 46.9416%.
In the case of `COc1ccc(C2CC(c3ccccc3)=NN2c2ccc(S(N)(=O)=O)cc2)cc1OC` (centres unmarked) [CBK268193] it was 101.214%; in that of `CC(OC(=O)N1CCN(c2ccccc2)CC1)c1ccccc1` (centres unmarked) [CBK200243], 114.851%.
As for `NC1=C2NC(c3cccc(C(=O)O)c3)=NN2N(c2ccccc2)N1` [CBK093663], the figure is 125.753%.
In the case of `COc1ccc(OC)c(CN2CCCN(C)CC2)c1` [CBK261554] it was 100%; in that of `CC(Oc1ccc2c(c1)OCO2)C(=O)NNC(=O)Nc1cccc(Cl)c1Cl` (centres unmarked) [CBK266852], 175.108%; in that of `COc1cncc(-c2cc(NC3CCCCC3)ncn2)c1` [CBK090903], 225.879%.
Consider `CN(C(=O)c1c[nH]nc1C1CCCN(Cc2ccnc3ccccc23)C1)C1CCCCC1` (centres unmarked) [CBK286491], for which the “% of control remaining” value worked out at 134.138%.
In the case of `CC(NC(=O)C(C)(C)C)c1nc(-c2ccncc2)n[nH]1` (centres unmarked) [CBK104074], the “% of control remaining” value is recorded as 106.178%.
Turning to `O=C(CC1CC1)NC(c1ccccc1)c1ccccn1` (centres unmarked) [CBK144108], the “% of control remaining” value is on record as 78.4325%.
As for `Cc1cc(NC(=O)c2ccccc2O)n(C)n1` [CBK000190], the “% of control remaining” value is 92.7801%.
For `CCn1c(COc2ccccc2Cl)nnc1SCC(=O)N1c2ccccc2Sc2ccccc21` [CBK265957], the “% of control remaining” value was found to be 90.3621%.
As for `N/C(=N/O)c1ccc(-n2cncn2)nc1` [CBK020936], the figure is 130.735%.
As for `COc1cccc(OC)c1OCCN1CCC(C(=O)NC(c2ccccc2)c2ccccn2)CC1` (centres unmarked) [CBK148419], the figure is 124.598%; as for `Cc1noc(C)c1C(=O)NC1(c2ccc(F)cc2)CCCC1` [CBK284013], 122.411%.
As for `Cc1cc(NC(=O)CN2CC(C)CC(C)C2)nc2c1c(=O)oc1ccccc12` (centres unmarked) [CBK287620], the figure is 146.473%.
For `O=C(Nc1nnc(-c2ccco2)o1)c1ccc(N2C(=O)CCC2=O)cc1` [CBK287423], the “% of control remaining” value worked out at 157.809%.
As for `O=C(NCc1nnc(-c2cccs2)o1)C1(c2cccc(F)c2)CC1` [CBK284639], the figure is 153.168%; as for `COCC(=O)N1CCc2cc(-c3cn4ccccc4n3)ccc21` [CBK285274], 147.35%.
As for `O=c1[nH]c2ncc(-c3cncc4ccccc34)nc2n1C1CCC(O)CC1` (centres unmarked) [CBK065013], the figure is 144.145%; as for `Cc1ccc(S(=O)(=O)N(C)CC(=O)OCC(=O)c2ccccc2)cc1` [CBK264329], 131.074%.
Consider `CCc1nc(C)c(C(C)N(C)CC(=O)NCc2ccco2)s1` (centres unmarked) [CBK305203], for which the “% of control remaining” value was 132.072%.
In the case of `N#CCCn1cc(C(=O)Oc2ccc(-c3ccccc3)cc2)c(-c2cccc([N+](=O)[O-])c2)n1` [CBK267968] it was 87.5523%; in that of `c1csc(-c2cc3cccnc3n2CCN2CCOCC2)c1` [CBK282718], 128.824%; in that of `CN(Cc1ccccc1)C(=O)c1c[nH]nc1C1CCCN(Cc2cccc(Cl)c2)C1` (centres unmarked) [CBK286490], 150.435%.
`CCN(C(=O)CCc1nc2ccccc2n1C)C1CCN(C)CC1` [CBK281994]: the “% of control remaining” value came out at 129.842%.
As for `CS(=O)(=O)Nc1cc2cccnc2c(-c2ccc3c(c2)CCO3)n1` [CBK085705], the figure is 128.621%.
As for `O=C1N=C(NCC2CCCCC2)OC1Cc1ccccc1` (centres unmarked) [CBK067023], the “% of control remaining” value came out at 111.109%.
In the case of `O=C1c2cccc3cccc(c23)C(=O)N1CC1CCN(CC(O)COCc2ccccc2)CC1` (centres unmarked) [CBK074407C] it was 76.4476%; in that of `Cn1c(=O)[nH]c(=O)c2c1nc(N1CCOCC1)n2CCCSc1nc2ccccc2s1` [CBK269368], 120.537%.
In the case of `Cc1ccc(-c2nn(-c3ccccc3)cc2C2CC(c3cccs3)=NN2C(=O)CCC(=O)O)cc1` (centres unmarked) [CBK296126] it was 123.895%.
As for `OC(COCc1ccc2c(c1)OCO2)CN1CCN(C(c2ccccc2)c2ccccc2)CC1` (centres unmarked) [CBK074850C], the “% of control remaining” value was determined as 104.525%.
As for `OCc1cccc(-c2nccnc2NCc2ccc(OC(F)(F)F)cc2)c1` [CBK037476], the figure is 151.179%.
